Measured values taken from the supplement of paper PMC8728848.
The other results are listed elsewhere or left out.

Key:
Assay in all cases: glycan array binding signal (z-score within array); higher = stronger binding
Details in all cases: glycan notation: IUPAC condensed, linker removed
[1] = biological target: Gal(b1-3)GlcNAc(b1-6)[Gal(b1-3)]GalNAc
Summary of the method: (§1)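 The binding signal is a Z-score computed within each array and averaged over linkers. Arrays of the same protein sequence at different concentrations or buffers were also averaged together. Data originate from 3228 arrays in the Consortium for Functional Glycomics database, kept only where the protein sequence was available.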

[2] = biological target: Gal(b1-3)GlcNAc6S
Summary of the method: as §1

[3] = biological target: Gal(b1-3)[Fuc(a1-4)]GlcNAc
Summary of the method: as §1

[4] = biological target: Gal(b1-3)[Fuc(a1-4)]GlcNAc(b1-2)Man
Summary of the method: as §1

[5] = biological target: Gal(b1-3)[Fuc(a1-4)]GlcNAc(b1-2)Man(a1-3)[Gal(b1-3)[Fuc(a1-4)]GlcNAc(b1-2)Man(a1-6)]Man(b1-4)GlcNAc(b1-4)[Fuc(a1-6)]GlcNAc
Summary of the method: as §1

[6] = biological target: Gal(b1-3)[Fuc(a1-4)]GlcNAc(b1-3)Gal(b1-3)[Fuc(a1-4)]GlcNAc
Summary of the method: as §1

[7] = biological target: Gal(b1-3)[Fuc(a1-4)]GlcNAc(b1-3)Gal(b1-4)[Fuc(a1-3)]GlcNAc
Summary of the method: as §1

[8] = biological target: Gal(b1-3)[Fuc(a1-4)]GlcNAc(b1-6)GalNAc
Summary of the method: as §1

[9] = biological target: Gal(b1-3)[GlcNAc(b1-6)]GalNAc
Summary of the method: as §1

[10] = biological target: Gal(b1-3)[Neu5Ac(a2-6)]GalNAc
Summary of the method: as §1

[11] = biological target: Gal(b1-3)[Neu5Ac(a2-6)]GlcNAc(b1-4)Gal(b1-4)Glc
Summary of the method: as §1

[12] = biological target: Gal(b1-3)[Neu5Ac(b2-6)]GalNAc
Summary of the method: as §1

[13] = biological target: Gal(b1-4)Gal
Summary of the method: as §1

[14] = biological target: Gal(b1-4)GalNAc(a1-3)[Fuc(a1-2)]Gal(b1-4)GlcNAc
Summary of the method: as §1

[15] = biological target: Gal(b1-4)GalNAc(b1-3)[Fuc(a1-2)]Gal(b1-4)GlcNAc
Summary of the method: as §1

[16] = biological target: Gal(b1-4)Glc
Summary of the method: as §1

[17] = biological target: Gal(b1-4)Glc6S
Summary of the method: as §1

[18] = biological target: Gal(b1-4)GlcNAc
Summary of the method: as §1

[19] = biological target: Gal(b1-4)GlcNAc(a1-6)Gal(b1-4)GlcNAc
Summary of the method: as §1

[20] = biological target: Gal(b1-4)GlcNAc(b1-2)Man
Summary of the method: as §1

[21] = biological target: Gal(b1-4)GlcNAc(b1-2)Man(a1-3)Man(b1-4)GlcNAc(b1-4)GlcNAc
Summary of the method: as §1

[22] = biological target: Gal(b1-4)GlcNAc(b1-2)Man(a1-3)[Gal(b1-4)GlcNAc(b1-2)Man(a1-6)]Man(b1-4)GlcNAc(b1-4)GlcNAc
Summary of the method: as §1

[23] = biological target: Gal(b1-4)GlcNAc(b1-2)Man(a1-3)[Gal(b1-4)GlcNAc(b1-2)Man(a1-6)]Man(b1-4)GlcNAc(b1-4)[Fuc(a1-6)]GlcNAc
Summary of the method: as §1

[24] = biological target: Gal(b1-4)GlcNAc(b1-2)Man(a1-3)[Gal(b1-4)GlcNAc(b1-2)Man(a1-6)][Gal(b1-4)GlcNAc(b1-4)]Man(b1-4)GlcNAc(b1-4)[Fuc(a1-6)]GlcNAc
Summary of the method: as §1

[25] = biological target: Gal(b1-4)GlcNAc(b1-2)Man(a1-3)[Gal(b1-4)GlcNAc(b1-2)Man(a1-6)][GlcNAc(b1-4)]Man(b1-4)GlcNAc(b1-4)[Fuc(a1-6)]GlcNAc
Summary of the method: as §1

[26] = biological target: Gal(b1-4)GlcNAc(b1-2)Man(a1-3)[GlcNAc(b1-2)Man(a1-6)]Man(b1-4)GlcNAc(b1-4)GlcNAc
Summary of the method: as §1

[27] = biological target: Gal(b1-4)GlcNAc(b1-2)Man(a1-3)[GlcNAc(b1-4)][Gal(b1-4)GlcNAc(b1-2)Man(a1-6)]Man(b1-4)GlcNAc(b1-4)GlcNAc
Summary of the method: as §1

[28] = biological target: Gal(b1-4)GlcNAc(b1-2)Man(a1-3)[Man(a1-6)]Man(b1-4)GlcNAc(b1-4)GlcNAc
Summary of the method: as §1

[29] = biological target: Gal(b1-4)GlcNAc(b1-2)Man(a1-6)Man(b1-4)GlcNAc(b1-4)GlcNAc
Summary of the method: as §1

[30] = biological target: Gal(b1-4)GlcNAc(b1-2)Man(a1-6)[GlcNAc(b1-2)Man(a1-3)]Man(b1-4)GlcNAc(b1-4)GlcNAc
Summary of the method: as §1

[31] = biological target: Gal(b1-4)GlcNAc(b1-2)Man(a1-6)[Man(a1-3)]Man(b1-4)GlcNAc(b1-4)GlcNAc
Summary of the method: as §1

[32] = biological target: Gal(b1-4)GlcNAc(b1-2)[Gal(b1-4)GlcNAc(b1-4)]Man(a1-3)[Gal(b1-4)GlcNAc(b1-2)Man(a1-6)]Man(b1-4)GlcNAc(b1-4)GlcNAc
Summary of the method: as §1

[33] = biological target: Gal(b1-4)GlcNAc(b1-2)[Gal(b1-4)GlcNAc(b1-4)]Man(a1-3)[Gal(b1-4)GlcNAc(b1-2)[Gal(b1-4)GlcNAc(b1-6)]Man(a1-6)]Man(b1-4)GlcNAc(b1-4)GlcNAc
Summary of the method: as §1

[34] = biological target: Gal(b1-4)GlcNAc(b1-2)[Gal(b1-4)GlcNAc(b1-4)]Man(a1-3)[GlcNAc(b1-4)][Gal(b1-4)GlcNAc(b1-2)Man(a1-6)]Man(b1-4)GlcNAc(b1-4)GlcNAc
Summary of the method: as §1

[35] = biological target: Gal(b1-4)GlcNAc(b1-2)[Gal(b1-4)GlcNAc(b1-4)]Man(a1-3)[GlcNAc(b1-4)][Gal(b1-4)GlcNAc(b1-2)[Gal(b1-4)GlcNAc(b1-6)]Man(a1-6)]Man(b1-4)GlcNAc(b1-4)GlcNAc
Summary of the method: as §1

[36] = biological target: Gal(b1-4)GlcNAc(b1-2)[Gal(b1-4)GlcNAc(b1-6)]Man(a1-6)[Gal(b1-4)GlcNAc(b1-2)Man(a1-3)]Man(b1-4)GlcNAc(b1-4)GlcNAc
Summary of the method: as §1

[37] = biological target: Gal(b1-4)GlcNAc(b1-2)[Gal(b1-4)GlcNAc(b1-6)]Man(a1-6)[Gal(b1-4)GlcNAc(b1-2)Man(a1-3)]Man(b1-4)GlcNAc(b1-4)[Fuc(a1-6)]GlcNAc
Summary of the method: as §1

[38] = biological target: Gal(b1-4)GlcNAc(b1-2)[Gal(b1-4)GlcNAc(b1-6)]Man(a1-6)[GlcNAc(b1-4)][Gal(b1-4)GlcNAc(b1-2)Man(a1-3)]Man(b1-4)GlcNAc(b1-4)GlcNAc
Summary of the method: as §1

[39] = biological target: Gal(b1-4)GlcNAc(b1-2)[Gal(b1-4)GlcNAc(b1-6)]Man(a1-6)[GlcNAc(b1-4)][Gal(b1-4)GlcNAc(b1-2)[Gal(b1-4)GlcNAc(b1-4)]Man(a1-3)]Man(b1-4)GlcNAc(b1-4)[Fuc(a1-6)]GlcNAc
Summary of the method: as §1

[40] = biological target: Gal(b1-4)GlcNAc(b1-3)Gal(b1-3)GalNAc
Summary of the method: as §1

[41] = biological target: Gal(b1-4)GlcNAc(b1-3)Gal(b1-3)GlcNAc
Summary of the method: as §1

[42] = biological target: Gal(b1-4)GlcNAc(b1-3)Gal(b1-4)Glc
Summary of the method: as §1

[43] = biological target: Gal(b1-4)GlcNAc(b1-3)Gal(b1-4)GlcNAc
Summary of the method: as §1

[44] = biological target: Gal(b1-4)GlcNAc(b1-3)Gal(b1-4)GlcNAc(b1-2)Man(a1-3)[Gal(b1-4)GlcNAc(b1-3)Gal(b1-4)GlcNAc(b1-2)Man(a1-6)]Man(b1-4)GlcNAc(b1-4)GlcNAc
Summary of the method: as §1

[45] = biological target: Gal(b1-4)GlcNAc(b1-3)Gal(b1-4)GlcNAc(b1-2)Man(a1-3)[Gal(b1-4)GlcNAc(b1-3)Gal(b1-4)GlcNAc(b1-2)Man(a1-6)]Man(b1-4)GlcNAc(b1-4)[Fuc(a1-6)]GlcNAc
Summary of the method: as §1

B1: Sp8391B-bot-388-20-388 (Bacteroides ovatus) (protein)
chain: GCQNNDENEQHYDNKLFISASNFTKEILFKAGDTNVETGLSVAIAKPEEHDIKVTMSPAPELLSTYKLAYYDETAVLLSEEHYSMPETSTTIKSGSIVSPELPIEFINTGELDIKTTYVLPVTIKSVEGIGVLQSAKTYYYVFRGASLINVVCNISRNRAYPDFKNDSKFNNLTENTMEILFKANSFPNTLNTLMGIESNYLLRIGDATIPNNQLQVATSVNNCTSADLQLESGKWYHVAVAFNKGNVKVYINGVEKLSGSTGKSSVSLGAKHTNEEDGSRCFWVGYSYKDDRYFDGVVSEVRIWNRALTAEEIQATNHFYTIEPESEGLIAYWKFDEGSGTVAKDYSVSGYDLTIEKEPKWESVSLPQ
- glycan array binding signal (z-score) [1]: 0.989
- glycan array binding signal (z-score) [2]: -0.822
- glycan array binding signal (z-score) [3]: -0.224
- glycan array binding signal (z-score) [4]: 0.017
- glycan array binding signal (z-score) [5]: 1.1
- glycan array binding signal (z-score) [6]: -0.572
- glycan array binding signal (z-score) [7]: 0.392
- glycan array binding signal (z-score) [8]: 0.047
- glycan array binding signal (z-score) [9]: -0.541
- glycan array binding signal (z-score) [10]: -0.208
- glycan array binding signal (z-score) [11]: -0.044
- glycan array binding signal (z-score) [12]: -0.578
- glycan array binding signal (z-score) [13]: -0.849
- glycan array binding signal (z-score) [14]: -1.68
- glycan array binding signal (z-score) [15]: -1.21
- glycan array binding signal (z-score) [16]: -0.183
- glycan array binding signal (z-score) [17]: -0.694
- glycan array binding signal (z-score) [18]: 0.022
- glycan array binding signal (z-score) [19]: 1.56
- glycan array binding signal (z-score) [20]: 0.113
- glycan array binding signal (z-score) [21]: -0.192
- glycan array binding signal (z-score) [22]: -0.612
- glycan array binding signal (z-score) [23]: 0.164
- glycan array binding signal (z-score) [24]: -0.182
- glycan array binding signal (z-score) [25]: -0.897
- glycan array binding signal (z-score) [26]: -0.556
- glycan array binding signal (z-score) [27]: -0.747
- glycan array binding signal (z-score) [28]: -0.622
- glycan array binding signal (z-score) [29]: -0.661
- glycan array binding signal (z-score) [30]: -0.167
- glycan array binding signal (z-score) [31]: -0.621
- glycan array binding signal (z-score) [32]: -0.277
- glycan array binding signal (z-score) [33]: -0.731
- glycan array binding signal (z-score) [34]: -0.27
- glycan array binding signal (z-score) [35]: 0.322
- glycan array binding signal (z-score) [36]: 2.39
- glycan array binding signal (z-score) [37]: 0.014
- glycan array binding signal (z-score) [38]: -0.41
- glycan array binding signal (z-score) [39]: -0.323
- glycan array binding signal (z-score) [40]: -0.068
- glycan array binding signal (z-score) [41]: -0.556
- glycan array binding signal (z-score) [42]: -0.506
- glycan array binding signal (z-score) [43]: -0.406
- glycan array binding signal (z-score) [44]: 1.45
- glycan array binding signal (z-score) [45]: 0.652
